Results are given in words; binding and its absence hold for the method and conditions named. Binding seen in cells or lysates may run through a third protein.
B1: CCCTC binding factor (CTCF) (protein, UniProt P49711 1-727)
chain: MEGDAVEAIVEESETFIKGKERKTYQRRREGGQEEDACHLPQNQTDGGEVVQDVNSSVQMVMMEQLDPTLLQMKTEVMEGTVAPEAEAAVDDTQIITLQVVNMEEQPINIGELQLVQVPVPVTVPVATTSVEELQGAYENEVSKEGLAESEPMICHTLPLPEGFQVVKVGANGEVETLEQGELPPQEDPSWQKDPDYQPPAKKTKKTKKSKLRYTEEGKDVDVSVYDFEEEQQEGLLSEVNAEKVVGNMKPPKPTKIKKKGVKKTFQCELCSYTCPRRSNLDRHMKSHTDERPHKCHLCGRAFRTVTLLRNHLNTHTGTRPHKCPDCDMAFVTSGELVRHRRYKHTHEKPFKCSMCDYASVEVSKLKRHIRSHTGERPFQCSLCSYASRDTYKLKRHMRTHSGEKPYECYICHARFTQSGTMKMHILQKHTENVAKFHCPHCDTVIARKSDLGVHLRKQHSYIEQGKKCRYCDAVFHERYALIQHQKSHKNEKRFKCDQCDYACRQERHMIMHKRTHTGEKPYACSHCDKTFRQKQLLDMHFKRYHDPNFVPAAFVCSKCGKTFTRRNTMARHADNCAGPDGVEGENGGETKKSKRGRKRKMRSKKEDSSDSENAEPDLDDNEDEEEPAVEIEPEPEPQPVTPAPPPAKKRRGRPPGRTNQPKQNQPTAIIQVEDQNTGAIENIIVEVKKEPDAEPAEGEEEEAQPAATDAPNGDLTPEMILSMMDR

Chains of the proteins cited; added tags and fusions are not shown.
UniProt Q9UJU2: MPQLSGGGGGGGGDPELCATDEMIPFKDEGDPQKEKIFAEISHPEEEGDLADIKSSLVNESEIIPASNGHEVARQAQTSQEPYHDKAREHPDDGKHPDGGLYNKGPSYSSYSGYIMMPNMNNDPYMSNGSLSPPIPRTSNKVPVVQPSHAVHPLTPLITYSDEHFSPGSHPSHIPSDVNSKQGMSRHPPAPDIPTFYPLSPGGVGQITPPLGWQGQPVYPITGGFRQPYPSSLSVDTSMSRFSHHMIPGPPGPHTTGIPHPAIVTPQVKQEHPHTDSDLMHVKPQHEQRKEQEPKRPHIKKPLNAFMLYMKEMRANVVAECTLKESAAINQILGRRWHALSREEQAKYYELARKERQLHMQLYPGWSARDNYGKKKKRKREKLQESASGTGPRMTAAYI
UniProt P35222: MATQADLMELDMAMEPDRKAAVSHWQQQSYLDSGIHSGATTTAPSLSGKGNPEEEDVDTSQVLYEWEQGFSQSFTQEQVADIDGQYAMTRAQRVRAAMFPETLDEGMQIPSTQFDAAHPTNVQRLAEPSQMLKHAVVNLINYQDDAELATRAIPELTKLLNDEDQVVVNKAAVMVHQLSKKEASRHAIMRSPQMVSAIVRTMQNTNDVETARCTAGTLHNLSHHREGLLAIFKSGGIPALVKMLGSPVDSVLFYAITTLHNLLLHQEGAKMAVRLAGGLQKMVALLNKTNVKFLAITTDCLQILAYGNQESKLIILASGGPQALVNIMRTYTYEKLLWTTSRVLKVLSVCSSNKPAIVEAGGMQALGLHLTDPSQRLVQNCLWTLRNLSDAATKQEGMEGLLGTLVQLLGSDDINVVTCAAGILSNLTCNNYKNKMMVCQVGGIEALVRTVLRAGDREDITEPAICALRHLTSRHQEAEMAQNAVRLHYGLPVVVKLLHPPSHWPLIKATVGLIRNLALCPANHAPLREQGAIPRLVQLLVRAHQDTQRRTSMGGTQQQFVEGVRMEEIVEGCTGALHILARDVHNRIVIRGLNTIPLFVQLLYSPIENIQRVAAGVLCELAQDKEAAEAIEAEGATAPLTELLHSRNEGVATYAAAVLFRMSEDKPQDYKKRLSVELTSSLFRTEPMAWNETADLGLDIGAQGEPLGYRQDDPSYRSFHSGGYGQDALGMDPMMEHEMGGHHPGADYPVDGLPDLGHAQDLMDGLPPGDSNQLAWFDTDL

Key:
[1] = molecular target: T1, CCCTC binding factor (CTCF) (human (endogenous in HEK293T)) (UniProt P49711); assay: condition: only Wnt-OFF (LGK), without Wnt signaling induction; proximity ligation; Duolink PLA kit in HEK293T cells, Wnt-OFF (1 nM LGK, 24 h); endogenous proteins detected with mouse anti-beta-catenin and rabbit anti-CTCF (1:200); foci per nucleus counted by confocal microscopy
T1 sequence: B1 chain

LEF1-FLAG = LEF1-FLAG (UniProt Q9UJU2); assay: co-IP; nuclear lysates; overexpressed LEF1-FLAG pulled down with anti-FLAG, mouse IgG isotype control; western blot with anti-CTCF

binding [1]	binding (LEF1-FLAG)	Molecule
no binding	–	CTNNB1 (also known as beta-catenin) (from UniProt P35222 1-781)
–	no binding	B1

From PMC12315713
